Results as given in patent publication US20060025340A1.
No constants are given. Whether binding was seen depends on the method and setting. A result given as binding can be weak or reduced; the word gives no strength.

Target: GDF-11 (Homo sapiens (Human))
Assay: SPR (BiaCore); GDF-11 amine-coupled on CM5 chip, Caronte injected at 200 ug/ml

binding: binds
B1: Caronte (from Gallus gallus), R&D Systems (ligand)
chain: QPDSQQRKRRPLQHLFYLDRNLLESQSFHELVGENPVGVKETQEEPSFFIAFPQTAGESQKQGEKKMSRFILPNAELYAHQDLRTWAAPKEISPVENFSPSYYSNKRDVEPPYRKDAKKFWDHFMLRKNSASEEVVLPIKTNEMHQETCRTLPFSQSVAHESCEKVIVQNNLCFGKCSSFHVPGPDDRLYTFCSKCLPTKFSMKHLDLNCTSSVPVVKKVMIVEECNCETQKIEDPLLGSRQSDFLGNLPEHN
